Results are given in words; binding and its absence hold for the method and conditions named. Binding seen in cells or lysates may run through a third protein. These calls come from enrichment with a bait or labelling near it, and not all partners need be listed. For part of these data: A no says only that the protein was not detected with the bait. For part of these data: Tags and fused reporters may be left off the sequences shown.
T1: hyperpolarization-activated cyclic nucleotide-gated channel HCN2 (mouse (endogenous in midbrain)) (UniProt O88703)
T1 sequence: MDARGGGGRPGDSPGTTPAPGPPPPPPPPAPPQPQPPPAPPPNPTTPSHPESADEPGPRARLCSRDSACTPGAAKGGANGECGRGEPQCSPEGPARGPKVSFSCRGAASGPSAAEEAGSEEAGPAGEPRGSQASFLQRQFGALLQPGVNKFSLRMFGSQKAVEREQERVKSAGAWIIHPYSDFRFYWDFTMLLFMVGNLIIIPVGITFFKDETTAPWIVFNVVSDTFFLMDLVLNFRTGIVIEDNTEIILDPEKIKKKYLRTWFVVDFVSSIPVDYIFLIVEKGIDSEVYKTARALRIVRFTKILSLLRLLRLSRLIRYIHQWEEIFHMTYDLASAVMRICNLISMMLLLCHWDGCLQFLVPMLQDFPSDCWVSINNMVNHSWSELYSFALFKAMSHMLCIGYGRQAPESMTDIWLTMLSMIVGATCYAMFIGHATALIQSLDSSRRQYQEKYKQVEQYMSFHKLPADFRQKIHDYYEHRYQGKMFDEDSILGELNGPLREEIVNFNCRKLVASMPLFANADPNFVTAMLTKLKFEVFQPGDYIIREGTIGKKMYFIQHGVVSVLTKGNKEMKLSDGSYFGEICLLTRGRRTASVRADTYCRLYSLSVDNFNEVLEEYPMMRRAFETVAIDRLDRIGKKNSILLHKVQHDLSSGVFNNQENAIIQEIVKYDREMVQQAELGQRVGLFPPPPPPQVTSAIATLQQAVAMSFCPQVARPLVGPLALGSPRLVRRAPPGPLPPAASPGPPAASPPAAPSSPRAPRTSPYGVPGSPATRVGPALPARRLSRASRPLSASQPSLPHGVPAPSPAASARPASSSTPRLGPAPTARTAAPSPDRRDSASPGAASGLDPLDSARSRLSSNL

Chains of the proteins cited; added tags and fusions are not shown.
UniProt Q99246: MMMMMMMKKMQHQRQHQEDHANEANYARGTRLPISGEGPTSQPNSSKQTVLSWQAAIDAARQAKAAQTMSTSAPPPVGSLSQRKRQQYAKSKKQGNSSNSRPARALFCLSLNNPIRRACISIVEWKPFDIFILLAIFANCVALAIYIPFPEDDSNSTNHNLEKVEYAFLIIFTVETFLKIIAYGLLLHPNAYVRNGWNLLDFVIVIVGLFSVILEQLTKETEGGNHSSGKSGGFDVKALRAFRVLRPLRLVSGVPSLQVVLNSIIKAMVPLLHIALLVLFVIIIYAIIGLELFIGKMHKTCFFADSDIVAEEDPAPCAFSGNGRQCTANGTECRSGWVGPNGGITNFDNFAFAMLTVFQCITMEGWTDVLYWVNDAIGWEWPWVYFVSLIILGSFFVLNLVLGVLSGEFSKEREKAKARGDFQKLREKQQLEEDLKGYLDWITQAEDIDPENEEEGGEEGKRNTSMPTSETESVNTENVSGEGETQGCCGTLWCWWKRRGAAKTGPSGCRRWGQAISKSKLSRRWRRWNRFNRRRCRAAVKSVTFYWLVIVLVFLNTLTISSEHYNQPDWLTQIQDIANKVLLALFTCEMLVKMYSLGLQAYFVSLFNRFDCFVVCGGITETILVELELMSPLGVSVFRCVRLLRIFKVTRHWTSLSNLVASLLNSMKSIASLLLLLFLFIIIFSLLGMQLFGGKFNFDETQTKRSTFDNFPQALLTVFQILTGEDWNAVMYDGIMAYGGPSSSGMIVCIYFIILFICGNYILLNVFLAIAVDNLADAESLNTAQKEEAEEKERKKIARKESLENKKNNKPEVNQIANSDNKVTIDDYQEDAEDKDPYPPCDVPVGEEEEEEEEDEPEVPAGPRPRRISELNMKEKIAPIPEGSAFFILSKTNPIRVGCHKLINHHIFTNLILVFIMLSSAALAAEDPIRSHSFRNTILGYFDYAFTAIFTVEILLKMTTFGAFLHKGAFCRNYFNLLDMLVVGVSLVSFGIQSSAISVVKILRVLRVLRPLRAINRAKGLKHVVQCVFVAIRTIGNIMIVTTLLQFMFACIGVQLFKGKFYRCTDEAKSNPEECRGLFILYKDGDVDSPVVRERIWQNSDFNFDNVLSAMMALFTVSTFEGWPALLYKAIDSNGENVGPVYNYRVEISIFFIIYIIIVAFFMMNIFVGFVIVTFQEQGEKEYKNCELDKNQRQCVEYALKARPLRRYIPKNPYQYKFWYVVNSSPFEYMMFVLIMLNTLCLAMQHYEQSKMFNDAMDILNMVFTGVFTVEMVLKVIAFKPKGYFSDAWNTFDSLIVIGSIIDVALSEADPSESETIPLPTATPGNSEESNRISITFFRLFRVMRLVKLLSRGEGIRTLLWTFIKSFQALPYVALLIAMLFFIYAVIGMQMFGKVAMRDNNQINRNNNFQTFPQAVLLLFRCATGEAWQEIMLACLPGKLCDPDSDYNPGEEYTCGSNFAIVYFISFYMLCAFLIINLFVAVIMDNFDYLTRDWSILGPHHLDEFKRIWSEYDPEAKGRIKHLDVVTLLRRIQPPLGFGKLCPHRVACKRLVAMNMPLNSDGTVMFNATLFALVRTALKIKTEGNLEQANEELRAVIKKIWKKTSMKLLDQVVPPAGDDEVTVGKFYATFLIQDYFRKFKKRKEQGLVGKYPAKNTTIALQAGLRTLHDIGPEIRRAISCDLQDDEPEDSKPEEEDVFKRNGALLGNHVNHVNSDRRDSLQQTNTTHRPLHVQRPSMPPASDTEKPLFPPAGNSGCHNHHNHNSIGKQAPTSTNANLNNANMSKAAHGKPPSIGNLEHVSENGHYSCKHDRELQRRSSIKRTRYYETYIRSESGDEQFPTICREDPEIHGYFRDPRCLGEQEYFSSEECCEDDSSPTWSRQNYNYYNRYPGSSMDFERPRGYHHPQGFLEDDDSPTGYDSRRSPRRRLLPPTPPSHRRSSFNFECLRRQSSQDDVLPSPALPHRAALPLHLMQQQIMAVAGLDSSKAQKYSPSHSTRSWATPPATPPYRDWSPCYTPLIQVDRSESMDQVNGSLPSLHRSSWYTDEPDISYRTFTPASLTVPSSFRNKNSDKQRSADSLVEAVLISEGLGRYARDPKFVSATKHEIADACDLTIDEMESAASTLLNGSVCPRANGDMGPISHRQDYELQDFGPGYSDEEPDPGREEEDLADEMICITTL
UniProt O70507: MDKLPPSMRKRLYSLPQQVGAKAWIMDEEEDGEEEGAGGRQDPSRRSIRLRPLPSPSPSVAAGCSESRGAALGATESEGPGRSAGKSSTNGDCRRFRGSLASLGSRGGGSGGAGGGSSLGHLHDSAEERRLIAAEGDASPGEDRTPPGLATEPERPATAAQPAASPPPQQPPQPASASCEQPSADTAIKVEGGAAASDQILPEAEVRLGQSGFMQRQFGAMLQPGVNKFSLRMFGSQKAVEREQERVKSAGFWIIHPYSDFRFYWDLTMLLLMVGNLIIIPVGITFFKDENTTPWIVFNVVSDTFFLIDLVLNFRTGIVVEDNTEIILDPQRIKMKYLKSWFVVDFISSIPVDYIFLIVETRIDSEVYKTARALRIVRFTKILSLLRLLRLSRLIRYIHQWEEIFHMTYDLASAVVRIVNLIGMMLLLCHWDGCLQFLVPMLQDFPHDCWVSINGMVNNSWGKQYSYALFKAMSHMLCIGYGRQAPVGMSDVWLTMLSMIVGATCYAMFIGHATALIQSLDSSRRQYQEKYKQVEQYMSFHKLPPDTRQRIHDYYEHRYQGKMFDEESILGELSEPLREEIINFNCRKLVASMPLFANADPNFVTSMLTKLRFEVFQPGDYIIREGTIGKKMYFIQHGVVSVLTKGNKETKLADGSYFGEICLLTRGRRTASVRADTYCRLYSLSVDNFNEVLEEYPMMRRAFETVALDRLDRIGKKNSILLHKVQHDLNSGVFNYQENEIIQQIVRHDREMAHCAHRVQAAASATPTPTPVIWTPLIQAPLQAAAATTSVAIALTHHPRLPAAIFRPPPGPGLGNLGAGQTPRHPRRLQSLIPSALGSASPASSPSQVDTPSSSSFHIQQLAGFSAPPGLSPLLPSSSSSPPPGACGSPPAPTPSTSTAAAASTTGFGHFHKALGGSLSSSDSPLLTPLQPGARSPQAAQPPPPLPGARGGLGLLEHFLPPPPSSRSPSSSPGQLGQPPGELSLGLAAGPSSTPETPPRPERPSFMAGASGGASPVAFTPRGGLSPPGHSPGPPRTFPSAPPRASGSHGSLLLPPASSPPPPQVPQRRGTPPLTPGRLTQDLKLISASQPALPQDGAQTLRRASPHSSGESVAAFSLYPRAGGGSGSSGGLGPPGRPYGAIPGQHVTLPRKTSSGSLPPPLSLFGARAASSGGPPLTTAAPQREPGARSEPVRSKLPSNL
UniProt Q9Z0V1: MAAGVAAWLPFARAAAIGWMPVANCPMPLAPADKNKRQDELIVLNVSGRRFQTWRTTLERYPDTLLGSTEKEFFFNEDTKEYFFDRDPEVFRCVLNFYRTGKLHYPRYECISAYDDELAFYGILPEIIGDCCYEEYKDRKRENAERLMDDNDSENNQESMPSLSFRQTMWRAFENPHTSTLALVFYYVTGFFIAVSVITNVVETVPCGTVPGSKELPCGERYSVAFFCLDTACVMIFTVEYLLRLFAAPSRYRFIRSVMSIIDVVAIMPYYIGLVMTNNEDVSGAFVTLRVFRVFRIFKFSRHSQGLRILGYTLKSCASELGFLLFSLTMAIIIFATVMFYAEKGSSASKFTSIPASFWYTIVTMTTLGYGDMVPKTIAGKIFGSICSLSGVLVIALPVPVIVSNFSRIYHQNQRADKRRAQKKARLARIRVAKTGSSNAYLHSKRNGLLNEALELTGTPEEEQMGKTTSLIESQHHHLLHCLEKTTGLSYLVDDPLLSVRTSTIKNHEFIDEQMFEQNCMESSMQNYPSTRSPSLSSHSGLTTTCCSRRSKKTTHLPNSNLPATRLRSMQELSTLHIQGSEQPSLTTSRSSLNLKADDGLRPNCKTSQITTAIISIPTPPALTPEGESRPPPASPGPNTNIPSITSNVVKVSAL
UniProt Q8C437: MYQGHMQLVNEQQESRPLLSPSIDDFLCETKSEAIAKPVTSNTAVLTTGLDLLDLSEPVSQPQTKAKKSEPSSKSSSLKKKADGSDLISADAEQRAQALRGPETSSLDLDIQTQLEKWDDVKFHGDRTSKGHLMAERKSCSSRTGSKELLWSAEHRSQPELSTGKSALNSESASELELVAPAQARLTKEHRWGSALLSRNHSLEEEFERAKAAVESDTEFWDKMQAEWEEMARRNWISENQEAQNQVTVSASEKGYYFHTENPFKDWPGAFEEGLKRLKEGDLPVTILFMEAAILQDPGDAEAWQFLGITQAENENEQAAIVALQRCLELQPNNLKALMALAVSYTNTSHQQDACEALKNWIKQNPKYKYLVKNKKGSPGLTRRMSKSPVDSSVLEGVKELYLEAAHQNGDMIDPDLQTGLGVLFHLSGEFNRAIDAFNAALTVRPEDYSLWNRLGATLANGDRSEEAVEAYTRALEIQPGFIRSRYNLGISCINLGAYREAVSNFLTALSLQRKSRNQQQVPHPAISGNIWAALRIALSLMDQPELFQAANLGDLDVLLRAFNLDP
UniProt O88704: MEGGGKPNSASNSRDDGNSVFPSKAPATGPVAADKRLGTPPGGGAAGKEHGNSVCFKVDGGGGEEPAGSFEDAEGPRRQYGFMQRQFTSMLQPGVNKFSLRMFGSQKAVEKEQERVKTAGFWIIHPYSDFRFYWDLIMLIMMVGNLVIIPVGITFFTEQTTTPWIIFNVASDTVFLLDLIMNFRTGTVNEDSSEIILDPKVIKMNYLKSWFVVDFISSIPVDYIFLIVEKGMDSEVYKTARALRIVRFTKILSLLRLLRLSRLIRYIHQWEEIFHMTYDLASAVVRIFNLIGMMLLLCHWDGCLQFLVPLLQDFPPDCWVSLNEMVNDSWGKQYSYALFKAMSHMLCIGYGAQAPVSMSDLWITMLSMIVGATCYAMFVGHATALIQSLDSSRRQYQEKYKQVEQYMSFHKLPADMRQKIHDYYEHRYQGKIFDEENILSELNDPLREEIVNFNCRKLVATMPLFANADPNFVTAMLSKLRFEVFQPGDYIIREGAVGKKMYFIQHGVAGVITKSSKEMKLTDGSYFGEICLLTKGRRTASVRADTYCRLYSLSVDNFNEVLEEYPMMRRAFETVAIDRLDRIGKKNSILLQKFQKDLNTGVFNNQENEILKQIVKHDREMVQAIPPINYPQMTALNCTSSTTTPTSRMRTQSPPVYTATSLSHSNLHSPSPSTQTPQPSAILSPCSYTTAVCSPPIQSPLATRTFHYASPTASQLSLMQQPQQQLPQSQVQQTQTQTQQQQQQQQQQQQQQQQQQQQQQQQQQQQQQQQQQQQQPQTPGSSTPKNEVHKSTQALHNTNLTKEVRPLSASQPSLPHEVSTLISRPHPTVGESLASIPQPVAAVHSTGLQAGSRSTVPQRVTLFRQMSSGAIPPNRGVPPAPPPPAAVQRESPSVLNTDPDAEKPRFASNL
UniProt Q6NXK7: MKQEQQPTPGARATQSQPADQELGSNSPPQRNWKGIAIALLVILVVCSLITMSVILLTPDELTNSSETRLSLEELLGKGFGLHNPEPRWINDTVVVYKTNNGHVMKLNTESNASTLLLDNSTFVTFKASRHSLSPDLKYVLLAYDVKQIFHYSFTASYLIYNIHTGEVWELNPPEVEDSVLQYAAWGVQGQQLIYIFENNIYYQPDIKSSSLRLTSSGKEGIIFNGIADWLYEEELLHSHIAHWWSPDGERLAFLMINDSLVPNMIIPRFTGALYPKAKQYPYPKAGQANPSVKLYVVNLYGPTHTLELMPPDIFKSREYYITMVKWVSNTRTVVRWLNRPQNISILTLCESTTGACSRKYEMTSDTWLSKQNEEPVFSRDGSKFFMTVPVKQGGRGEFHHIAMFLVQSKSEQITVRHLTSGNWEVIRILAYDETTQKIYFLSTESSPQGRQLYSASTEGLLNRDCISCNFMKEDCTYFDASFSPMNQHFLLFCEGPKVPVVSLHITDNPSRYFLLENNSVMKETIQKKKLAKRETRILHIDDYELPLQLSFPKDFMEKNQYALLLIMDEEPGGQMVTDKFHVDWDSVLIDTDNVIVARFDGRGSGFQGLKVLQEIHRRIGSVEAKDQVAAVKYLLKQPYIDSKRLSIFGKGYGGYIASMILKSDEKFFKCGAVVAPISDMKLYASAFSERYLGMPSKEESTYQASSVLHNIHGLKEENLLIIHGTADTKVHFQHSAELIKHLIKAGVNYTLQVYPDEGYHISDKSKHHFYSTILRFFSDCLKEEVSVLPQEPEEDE

B1: hyperpolarization-activated cyclic nucleotide-gated channel HCN2 (protein, UniProt O88703 1-863)
chain: T1 sequence
B2: Rab-interacting molecule-binding protein Rimbp2 (protein, UniProt Q80U40 1-1072)
chain: MREAAERRQQLELEHEQALAFLNAKQQEIQLLQQAQVEAKKEHEGAVQLLESKVRELEEKCRVQSEQFNLLSRDLEKFRQHTGSIDLLGSSSVALLDVPLAPGKPFPQYMNGLATSIHKGHEGPTGHYSVIGDYIPLSGDKLESPCVKPSFLLRSSSPRCRFESEMDNDRNSNNSKQSSSGKVHLCVARYSYNPFDGPNENPEAELPLTAGKYLYVYGDMDEDGFYEGELLDGQRGLVPSNFVDFIQDNESRLAGTLGSEQDQNFLNHSGISLERDSILHLHSPTQVDSGITDNGGGTLDVNIDDIGEDTVPYPRKITLIKQLAKSVIVGWEPPAVPPGWGTVSSYNVLVDKETRMSLALGRRTKALIEKLNTAACTYRISVQCVTSRGNSDELQCTLLVGKDVVVAPSQLRVDNITQISAQLSWLPTNSNYSHIIFLNEEELDIVKAARYKYQFFNLRPNMAYKVKVLAQPHQMPWQLPLEQREKKEACVEFSTLPAGPPAPPQDVTVHAGATAASVQVSWKPPALTPTGLSNGANVTGYGVYAKGQRVAEVIAPTADGTAVELIRLRSLEAKAVSVRTLSVQGESMDSALAAIPPDLLVPPAPHPRTAPPPKPLASDMDTKDQHLGPHVKVDESWEQSRSPGPAHGHMLEPPDMHSAGPGRRSPSPSRILPQPQGAPVSTTVAKAMAREAAQRVAESNRLEKRSLFLEQSSAGQYTNSDEEDGYASPEVKRRGTSVDDFLKGSELGKQPHCCHGDEYHTESSRGSDLSDIMEEDEEELYSEMQLEDGGRRRPSGTSHNALKILGNSTLMGRADRMEHVSRRYSHSGGGSHRHRPAMAPSIDEYTGRDHLSPDFYDESETDPGAEELPARIFVALFDYDPLTMSPNPDAAEEELPFKEGQIIKVYGDKDADGFYRGETCARLGLIPCNMVSEIHADDEEMMDQLLRQGFLPLNTPVEKIERSRRSGRGHSVPTRRMVALYDYDPRESSPNVDVEAELPFCTGDIITVFGEIDEDGFYYGELNGQKGLVPSNFLEEVPDDVEVHLSDAPPHYSHDPPMRSKAKRKKSVHFTP
B3: sterile alpha and Toll/interleukin-1 receptor (TIR) motif-containing 1 (protein, UniProt Q6PDS3 28-724)
chain: LTVPGPDRSGGASPWWAAGGRGSREVSPGVGTEVQGALERSLPELQQALSELKQASAARAVGAGLAEVFQLVEEAWLLPAVGREVAQGLCDAIRLDGGLDLLLRLLQAPELETRVQAARLLEQILVAENRDRVARIGLGVILNLAKEREPVELARSVAGILEHMFKHSEETCQRLVAAGGLDAVLYWCRRTDPALLRHCALALANCALHGGQTVQRCMVEKRAAEWLFPLAFSKEDELLRLHACLAVAVLATNKEVEREVEHSGTLALVEPLVASLDPGRFARCLVDASDTSQGRGPDDLQSLVLLLDSSRLEAQCIGAFYLCAEAAIKSLQGKTKVFSDIGAIQSLKRLVSYSTNGTTSALAKRALRLLGEEVPRRILPCVASWKEAEVQTWLQQIGFSQYCENFREQQVDGDLLLRLTDEELQTDLGMKSSITRKRFFRELTELKTFASYATCDRSNLADWLGSLDPRFRQYTYGLVSCGLDRSLLHRVSEQQLLEDCGIRLGVHRTRILSAAREMLHSPLPCTGGKLSGDTPDVFISYRRNSGSQLASLLKVHLQLHGFSVFIDVEKLEAGKFEDKLIQSVIAARNFVLVLSAGALDKCMQDHDCKDWVHKEIVTALSCGKNIVPIIDGFEWPEPQALPEDMQAVLTFNGIKWSHEYQEATIEKIIRFLQGRPSQDSSAGSDTSLEGATPMGLP
B4: Kv4.3 channel auxiliary subunit Kchip 4 (protein, UniProt Q6PHZ8 1-250)
chain: MNVRRVESISAQLEEASSTGGFLYAQNNTKRSIKERLMKLLPCSAAKTSSPAIQNSVEDELEMATVRHRPEALELLEAQSKFTKKELQILYRGFKNECPSGVVNEETFKEIYSQFFPQGDSTTYAHFLFNAFDTDHNGAVSFEDFIKGLSILLRGTVQEKLNWAFNLYDINKDGYITKEEMLDIMKAIYDMMGKCTYPVLKEDAPRQHVETFFQKMDKNKDGVVTIDEFIESCQKDENIMRSMQLFENVI
B5: Kv4.2 channel (protein, UniProt Q9Z0V2 1-630)
chain: MAAGVAAWLPFARAAAIGWMPVASGPMPAPPRQERKRTQDALIVLNVSGTRFQTWQDTLERYPDTLLGSSERDFFYHPETQQYFFDRDPDIFRHILNFYRTGKLHYPRHECISAYDEELAFFGLIPEIIGDCCYEEYKDRRRENAERLQDDADTDNTGESALPTMTARQRVWRAFENPHTSTMALVFYYVTGFFIAVSVIANVVETVPCGSSPGHIKELPCGERYAVAFFCLDTACVMIFTVEYLLRLAAAPSRYRFVRSVMSIIDVVAILPYYIGLVMTDNEDVSGAFVTLRVFRVFRIFKFSRHSQGLRILGYTLKSCASELGFLLFSLTMAIIIFATVMFYAEKGSSASKFTSIPAAFWYTIVTMTTLGYGDMVPKTIAGKIFGSICSLSGVLVIALPVPVIVSNFSRIYHQNQRADKRRAQKKARLARIRAAKSGSANAYMQSKRNGLLSNQLQSSEDEPAFISKSGSSFETQHHHLLHCLEKTTNHEFVDEQVFEESCMEVATVNRPSSHSPSLSSQQGVTSTCCSRRHKKTFRIPNANVSGSHRGSVQELSTIQIRCVERTPLSNSRSSLNAKMEECVKLNCEQPYVTTAIISIPTPPVTTPEGDDRPESPEYSGGNIVRVSAL

Assays:
Assay in all cases: affinity purification with mass spectrometry; mouse midbrain plasma-membrane-enriched fraction solubilised in CL47a; antibody-coated magnetic beads (protein A Dynabeads for Cav1.3), 2 h at 4 °C; LC-MS/MS, iBAQ, Class A/B against 11 control IPs from knock-out mice
[1] = target: T1, hyperpolarization-activated cyclic nucleotide-gated channel HCN2 (mouse (endogenous in midbrain))
[2] = target: Cav1.3 L-type voltage-dependent Ca2+ channel α1-subunit (mouse (endogenous in midbrain)) (UniProt Q99246)
[3] = target: hyperpolarization-activated cyclic nucleotide-gated channel HCN4 (mouse (endogenous in midbrain)) (UniProt O70507)
[4] = target: Kv4.3 A-type potassium channel (mouse (endogenous in midbrain)) (UniProt Q9Z0V1)
[5] = target: SK3 calcium-activated small-conductance potassium channel (mouse (endogenous in midbrain)) (UniProt P58391)

Molecule	binding [1]	binding [2]	binding [4]	also measured
Pex5-related protein Pex5r (from UniProt Q8C437 1-567)	binds	binds	–	–
hyperpolarization-activated cyclic nucleotide-gated channel HCN1 (from UniProt O88704 1-910)	binds	–	–	binding [3]: binds
Kv4.3 channel auxiliary subunit Dpp6 (from UniProt Q9Z218 1-804)	–	–	binds	–
hyperpolarization-activated cyclic nucleotide-gated channel HCN4 (from UniProt O70507 1-1201)	binds	binds	–	–
Kv4.3 channel auxiliary subunit Dpp10 (from UniProt Q6NXK7 1-797)	–	–	binds	–
voltage-dependent calcium channel auxiliary subunit α2δ1 (from UniProt O08532 25-1103)	–	no binding	–	binding [5]: binds
B1	–	binds	–	binding [5]: binds; binding [3]: binds
B2	–	binds	–	–
B3	no binding	–	–	binding [3]: binds
B4	–	–	binds	–
B5	–	–	binds	–
